Reference: PubChem BioAssay AID2685 (National Center for Advancing Translational Sciences (NCATS), 2010)
About 2,100 (0.66%) of roughly 320,000 compounds were called active. This list was built around the results that the source calls inconclusive (neither active nor inactive); the mix of calls is not that of the screen. Calls follow the shape of the dose curve; as a rule, active = well fitted inhibition curve with a large enough effect in the signal ratio, with a control signal flat (not every such curve was filed as active); inconclusive = small, poorly fitted or top-dose-only effect, or effect the other way, or a change in a side signal; inactive = flat fitted curve, though single readings scatter; the % refers to the signal ratio. Where the call is inconclusive, the potency comes from a doubtful curve fit.

experiment: qHTS Assay for Lipid Storage Modulators in Drosophila S3 Cells; details: BODIPY lipid droplet fluorescence, 18-24 h, cells fed with added oleic acid; lipid storage change, negative = inhibition: at 46.1 µM (top of the series) unless noted
Method in brief: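 Laser-scanning cytometry quantifies lipid droplet accumulation (500–530 nm total intensity; droplet/cell object ratio) in oleic acid-fed (400 uM added) Drosophila S3 cells treated with a concentration series. 20 uM Triacsin C defined 100% inhibition.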
% is scaled to controls: 0 for no effect and ±100 for the full control effect; potency is read from the fitted curve at half-maximal effect.

Row | SMILES | lipid storage change, negative = inhibition | Potency
1 | Cc1c(N2C(=O)CS/C2=N\N=C\c2ccc(Br)cc2)c(=O)n(-c2ccccc2)n1C | inconclusive: 36.8% | 
2 | Cc1[nH]c2ccccc2c1C(=O)COC(=O)C1CC(O)CN1S(=O)(=O)c1ccc(Cl)cc1 (stereo unspecified) | inconclusive: -34.9% | 
3 | CCOc1ccc(OCc2cccc(C(=O)N/N=C/c3cccnc3)c2)cc1 |  | inconclusive: 11.6 µM [activator, partial curve, poor fit]
4 | CCOc1ccc(C(=O)CCN2CCCCC2)cc1 |  | inconclusive: 29.1 µM [falling, single point]
5 | Cc1ccc(CSc2nnc(Nc3ccc(C)cc3)s2)cc1 | inconclusive: 30.7% | 
6 | COc1ccccc1-c1c(C)oc2cc(OC(=O)c3ccco3)ccc2c1=O | inconclusive: 42.9% | 
7 | CC1CN(S(=O)(=O)c2ccc(NC(=O)CCN3C(=O)c4ccccc4C3=O)cc2)CC(C)O1 (stereo unspecified) | inconclusive: -18.6% | 
8 | Nc1nnc(SCn2nnc3ccccc3c2=O)s1 |  | inconclusive: 2.06 µM [activator, partial curve]
9 | COc1ccc(NC(=O)c2oc3ccccc3c2CSC)cn1 |  | active: 23.1 µM
10 | O=C(COC(=O)c1ccc(O)cc1O)NCCN1C(=O)CSC1=O | inconclusive: 16.7% | 
11 | CCCCCCC(=O)Nc1cc2c(C)cc(=O)oc2cc1C |  | inconclusive: 3.26 µM [activator, partial curve]
12 | COc1ccc(C(=O)Nc2ccc(S(=O)(=O)Nc3nccc(C)n3)cc2)cc1[N+](=O)[O-] |  | inconclusive: 11.6 µM [activator, partial curve]
13 | CCOC(=O)c1cc(-c2ccccc2)n(CC(=O)Nc2ccc(OCC)cc2)c1C | inconclusive: 22.2% | 
14 | COc1ccc(C(=O)N(Cc2ccccc2)c2cccc(C)c2)cc1 | inconclusive: 6.72% | 
15 | Cc1ccccc1-n1nnnc1SC(C)C(=O)NC1CCCc2ccccc21 (stereo unspecified) |  | inconclusive: 29.1 µM [falling, single point]
16 | COc1ccc(-n2nc([N+](=O)[O-])c(=NCCc3ccc(Cl)cc3)n2O)cc1 |  | inconclusive: 23.1 µM [falling, single point]
17 | O=C(c1cc2ccccn2n1)N1CCN(c2ccccn2)CC1 | inconclusive: 60.1% [activator] | 
18 | COc1cc(Cl)c(C)cc1Nc1ncccn1 | inconclusive: 142% | 
19 | O=C(Nc1cccc(NC(=O)c2ccc(Cl)cc2)n1)c1ccc(Cl)cc1 |  | inconclusive: 0.206 µM [falling, full curve]
20 | COc1ccccc1NS(=O)(=O)c1ccc2oc(SCC(=O)N3CCNC3=O)nc2c1 |  | inconclusive: 0.058 µM [falling, full curve, poor fit]
21 | O=S(=O)(c1ccccc1)N1CCN(c2cccc(Cl)c2)CC1 | inactive | 
22 | Cc1cccc(N=C2NC(=O)/C(=C/c3cccs3)S2)c1 |  | inconclusive: 13 µM [activator, partial curve]
23 | COc1ccc(S(=O)(=O)N2CCN(C(=O)c3cc(-c4ccccc4OC)n[nH]3)CC2)cc1 |  | inconclusive: 20.6 µM [falling, single point]

Two compounds drawn at random from the list so far, as already listed:
Row | SMILES | lipid storage change, negative = inhibition | Potency
19 | O=C(Nc1cccc(NC(=O)c2ccc(Cl)cc2)n1)c1ccc(Cl)cc1 |  | inconclusive: 0.206 µM [falling, full curve]
17 | O=C(c1cc2ccccn2n1)N1CCN(c2ccccn2)CC1 | inconclusive: 60.1% [activator] | 

(cont.)

Row | SMILES | lipid storage change, negative = inhibition | Potency
24 | CC1CCCN(C(=O)COC(=O)/C=C/c2ccc(C(F)(F)F)cc2)C1 (stereo unspecified) |  | inconclusive: 0.116 µM [falling, full curve, poor fit]
25 | CCCCCc1nnc(NC(=O)c2ccc3nc[nH]c3c2)s1 |  | inconclusive: 29.1 µM [falling, single point]
26 | COc1ccc(N(C)C(=O)C2CCCN2S(=O)(=O)c2cccc3nsnc23)cc1 (stereo unspecified) |  | inconclusive: 0.291 µM [activator, full curve, poor fit]
27 | Cc1nnc(NC(=O)Nc2ccc(Cl)c(Cl)c2)s1 |  | inconclusive: 3.66 µM [activator, full curve]
28 | COc1ccc(C(=O)NNC(=O)CSc2nnnn2-c2cc(OC)cc(OC)c2)cc1 |  | inconclusive: 29.1 µM [activator, single point]
29 | O=c1[nH]c2cc3c(cc2cc1CN(Cc1ccccc1)Cc1nnnn1Cc1ccco1)OCCO3 | inconclusive: 91.2% | 
30 | Cc1[nH]c2ccccc2c1C(=O)CSc1nc2ccccc2[nH]1 |  | inconclusive: 25.9 µM [activator, partial curve, poor fit]
31 | CC(NC(=O)c1cccc(Cl)c1)C1CC2CCC1C2 (stereo unspecified) |  | inconclusive: 20.6 µM [falling, single point]
32 | COc1ccc(CN2CCC(=O)NC2=O)cc1 | inconclusive: -3.4% | 
33 | Cc1cccc(NC(=O)CN2CCCCCC2)c1 |  | inconclusive: 0.206 µM [activator, full curve, poor fit]
34 | O=C(c1ccc(CS(=O)(=O)c2ccc(Br)cc2)o1)N1CCOCC1 | inconclusive: 37.5% | 
35 | O=C(NN1CCOCC1)c1ccc(F)cc1 |  | inconclusive: 6.51 µM [activator, single point]
36 | CCOc1ccc(C2c3[nH]c4ccccc4c3CCN2Cc2cccn2-c2ncccn2)cc1 (stereo unspecified) | inconclusive: 22% | 
37 | Cc1ccc(NC(=O)c2ccc(F)cc2F)cc1NS(C)(=O)=O | inconclusive: 40.7% | 
38 | Cc1ccc(C)c(Nc2ncnc(N)c2[N+](=O)[O-])c1 | inconclusive: 33.7% | 
39 | O=S(=O)(NCCCN1CCOCC1)c1ccc(Cl)cc1 |  | inconclusive: 0.651 µM [activator, single point]
40 | COC(=O)c1[nH]c2ccccc2c1NC(=O)CN1CCN(c2cccc(Cl)c2)CC1 | inconclusive: -25% | 
41 | CC(=O)c1sc(C(=O)O)c(-c2ccco2)c1-c1ccco1 | inconclusive: -18.4% | 
42 | O=C(C(=O)N1CCN(c2ccccc2)CC1)c1cn(CC(=O)N2CCCCCC2)c2ccccc12 |  | inconclusive: 32.6 µM [falling, single point]
43 | O=C(N/N=C/c1ccc[nH]1)c1ccccc1OCc1ccc(F)cc1 |  | inconclusive: 1.84 µM [activator, full curve, poor fit]
44 | COc1ccc(S(=O)(=O)Nc2ccc(S(=O)(=O)NCC3CCCO3)cc2)cc1 (stereo unspecified) | inconclusive: -5.86% | 
45 | COc1ccc(CCNC(=O)c2nnn(CC(=O)Nc3cccc(F)c3)c2N)cc1OC | inconclusive: 29.6% | 
46 | CCOC(=O)N1CCN(C(=O)CSc2ccc3nnc(CCNC(=O)c4ccc(OC)cc4)n3n2)CC1 | inconclusive: -9.72% | 
